Data taken from article PMC10354159.

Assays:
[1] = biological target: insulin-like growth factor-1 receptor (mouse (endogenous in C57BL/6J tissue)); assay: co-IP; cortex lysate (RIPA buffer) of female C57BL/6J mice given recombinant human insulin 10 min before collection; IR or IGF1R precipitated with antibody overnight at 4 °C and protein-AG beads, blot for Inceptor
[2] = biological target: insulin-like growth factor-1 receptor (mouse (endogenous in C57BL/6J tissue)); assay: co-IP; pancreas lysate (RIPA buffer) of female C57BL/6J mice given recombinant human insulin 10 min before collection; IR or IGF1R precipitated with antibody overnight at 4 °C and protein-AG beads, blot for Inceptor

binding [1]: binds
binding [2]: binds
B1: Inceptor (protein, UniProt A2AFS3 36-1009)
chain: FQVTLGTGPELHACKESEYHFEYTACDSTGSRWRVAVPHSPGLCTSLPDPVKGTECSFSCNAGEFLDMKDQSCKPCAEGRYSLGTGIRFDEWDELPHGFASLSANLEVDDSISESTENCTSSKWVPRGDYIASNTDECTATLMYAVNLKQSGTVNFEYYYPDSSIIFEFFVQNDQCQPSADDSRWMKTTEKGWVELNRGNNVLYWRTTAFSVWSKVSKPVLVRNIAITGVAYTSECFPCKPGTYAAKQGSPFCKLCPANYYSNKGETSCHPCDADKYSEKGSSTCKVRPACTDKDYFYTHTACDAQGETQLMYKWAIPKICGEDLEGAVKLPASGVKTRCPPCNPGFFKTDNSTCEPCPYGSYSNGSDCTHCPAGTEPAVGFEYKWWNTLPSNMETTVLSGINFEYKGLTGWEVAGDHIYTAVGASDNDFMILTLVVPGFRPPQSVVADTENKEVARITFVFETICSVNCELYFMVGMNSRTNTPVETWKGTKGKQSYTYTIEENATVSFTWAFQRTTLHETGRKYTNDVAKIYSINVTNVMGGVASYCRPCALEASDLGSSCTSCPAGHYINRDSGTCHLCPSNTILKAHQPYGAQACVPCGPGTKNNKIHSLCYNDCTFSRNTPSRIFNYNFSALAGTVSLAGVPSFTSKGLKYFHHFTLSLCGNQGKKMAVCTDNVTDLRIPDGEAGFSKSVTAYVCQVVIIPSEVMGYKAGVSSQPVSLADRLVGVSTDMTLEGIVSPVELFHPETSGIPDIVFFFRSNDVTQSCSSGRSTTIRLRCNPMKAAPGTLRLPSMCSDGTCDGCNFHFLWESVAACPLCSASDYHTFVSSCVAGIQKTTYMWREPKLCSGGISLPEQRVTICKTIDFWLKVGISAGTCTAILLTVLTCYFWKKNQKLEYKYSKLVMNATLKDCDLPAADSCAIMEGEDVEDDFIFTSKKSLFGKIKSFTSKRTPDGFDSVPLKTSSGGPDMDM

Results are given in words; binding and its absence hold for the method and conditions named. Binding seen in cells or lysates may run through a third protein. Binding can be weak; no strength is given.
